Assay results taken from publication PMC12403285.

The chains behind the UniProt entries cited, without tags or fusion partners.
UniProt P19474: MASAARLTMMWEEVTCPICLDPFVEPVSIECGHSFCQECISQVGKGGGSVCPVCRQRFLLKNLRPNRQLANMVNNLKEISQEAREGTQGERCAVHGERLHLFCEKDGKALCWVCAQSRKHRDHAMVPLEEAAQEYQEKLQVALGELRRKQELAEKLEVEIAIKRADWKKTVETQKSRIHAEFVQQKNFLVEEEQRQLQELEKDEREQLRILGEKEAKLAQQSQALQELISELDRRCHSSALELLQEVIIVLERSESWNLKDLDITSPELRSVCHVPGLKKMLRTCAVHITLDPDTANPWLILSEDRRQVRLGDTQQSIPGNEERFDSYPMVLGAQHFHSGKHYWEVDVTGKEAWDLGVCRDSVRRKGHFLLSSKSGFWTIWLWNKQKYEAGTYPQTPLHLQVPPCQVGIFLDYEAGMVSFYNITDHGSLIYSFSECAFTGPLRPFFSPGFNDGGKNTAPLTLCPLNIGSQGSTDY

Molecular target: T1, Plakophilin-1 (human (endogenous in SK-MES-1)) (UniProt Q13835)
T1 sequence: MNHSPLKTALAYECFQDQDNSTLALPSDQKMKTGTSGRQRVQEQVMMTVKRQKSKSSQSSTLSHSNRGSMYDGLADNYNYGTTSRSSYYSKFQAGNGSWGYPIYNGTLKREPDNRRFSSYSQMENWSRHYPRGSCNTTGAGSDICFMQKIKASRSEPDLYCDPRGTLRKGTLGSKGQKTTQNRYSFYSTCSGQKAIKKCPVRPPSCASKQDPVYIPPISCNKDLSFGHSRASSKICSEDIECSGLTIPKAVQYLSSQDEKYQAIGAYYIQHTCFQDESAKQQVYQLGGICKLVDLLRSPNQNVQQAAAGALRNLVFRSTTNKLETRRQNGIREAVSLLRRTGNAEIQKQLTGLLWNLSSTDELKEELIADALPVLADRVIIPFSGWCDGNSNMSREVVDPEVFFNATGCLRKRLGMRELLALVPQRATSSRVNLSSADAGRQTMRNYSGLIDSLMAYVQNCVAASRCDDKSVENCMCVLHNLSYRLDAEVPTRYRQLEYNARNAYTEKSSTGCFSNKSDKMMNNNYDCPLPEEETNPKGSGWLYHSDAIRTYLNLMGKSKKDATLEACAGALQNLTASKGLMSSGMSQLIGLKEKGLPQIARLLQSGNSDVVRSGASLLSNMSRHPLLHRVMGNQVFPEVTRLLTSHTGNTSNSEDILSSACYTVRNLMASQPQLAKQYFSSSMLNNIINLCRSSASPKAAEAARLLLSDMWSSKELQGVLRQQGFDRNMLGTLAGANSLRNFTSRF
Experiment: affinity purification with mass spectrometry; immunoprecipitation of endogenous PKP1 in SK-MES-1 cells followed by MS/MS

binding: binds
Substance: TRIM21 (from UniProt P19474 1-475)

These are yes or no findings as the source states them, for the method shown. Binding seen in cells or lysates may run through a third protein. A yes stands for co-enrichment or nearness to the bait. Other partners may have been found.
